Article PMC12454627
No constants are given. Whether binding was seen depends on the method and setting. In cells and extracts the contact can be indirect. Some binding calls cover weakened binding; strength is not graded here.

Biological target: Hsp90AA1 (human (endogenous in HL60-ADR)) (UniProt P07900)
Test: co-IP; whole HL60-ADR cell lysate immunoprecipitated with anti-Hsp90AA1 antibody and protein A/G beads overnight at 4°C, western blot; lysis buffer 20 mM Tris-HCl pH 7.4, 0.5 M NaCl, 1% NP-40, 5 mM EDTA, 1 mM DTT; control or AC021683.2-knockdown cells, with or without 5 μM Ara-C for 48 h; normal IgG as negative control

For “BCL-2-associated transcription factor 1 (BCLAF1) (from UniProt Q9NYF8 1-920)”, the binding was “binds”.
